{"sequences": {"note": "The chains behind the UniProt entries cited, without tags or fusion partners. Residues count along the entry.", "UniProt Q00981": "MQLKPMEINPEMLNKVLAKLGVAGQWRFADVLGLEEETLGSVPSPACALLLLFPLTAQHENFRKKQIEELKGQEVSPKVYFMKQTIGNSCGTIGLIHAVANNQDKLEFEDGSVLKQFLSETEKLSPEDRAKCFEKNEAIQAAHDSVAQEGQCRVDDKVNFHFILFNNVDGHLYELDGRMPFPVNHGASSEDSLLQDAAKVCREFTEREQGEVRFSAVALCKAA", "UniProt Q6P3V8": "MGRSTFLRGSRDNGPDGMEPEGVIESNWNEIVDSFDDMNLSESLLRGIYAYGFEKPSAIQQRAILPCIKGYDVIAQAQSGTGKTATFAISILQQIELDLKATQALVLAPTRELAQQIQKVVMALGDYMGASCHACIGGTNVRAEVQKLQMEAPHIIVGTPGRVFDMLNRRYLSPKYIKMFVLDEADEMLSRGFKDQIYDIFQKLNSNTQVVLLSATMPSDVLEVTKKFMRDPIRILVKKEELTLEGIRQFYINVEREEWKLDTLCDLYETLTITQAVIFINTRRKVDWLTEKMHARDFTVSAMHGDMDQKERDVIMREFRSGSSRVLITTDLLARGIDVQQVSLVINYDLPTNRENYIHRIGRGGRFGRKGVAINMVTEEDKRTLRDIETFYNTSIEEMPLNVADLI", "UniProt P07335": "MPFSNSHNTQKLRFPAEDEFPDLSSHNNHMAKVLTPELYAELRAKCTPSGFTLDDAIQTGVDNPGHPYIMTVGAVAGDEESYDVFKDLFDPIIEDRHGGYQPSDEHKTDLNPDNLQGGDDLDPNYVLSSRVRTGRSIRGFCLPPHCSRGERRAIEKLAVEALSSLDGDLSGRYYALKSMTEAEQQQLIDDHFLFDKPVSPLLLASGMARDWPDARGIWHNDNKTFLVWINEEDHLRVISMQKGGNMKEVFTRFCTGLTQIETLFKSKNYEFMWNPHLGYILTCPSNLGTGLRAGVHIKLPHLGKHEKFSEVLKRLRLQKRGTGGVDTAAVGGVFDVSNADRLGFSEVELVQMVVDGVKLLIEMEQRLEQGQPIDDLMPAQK", "UniProt P04764": "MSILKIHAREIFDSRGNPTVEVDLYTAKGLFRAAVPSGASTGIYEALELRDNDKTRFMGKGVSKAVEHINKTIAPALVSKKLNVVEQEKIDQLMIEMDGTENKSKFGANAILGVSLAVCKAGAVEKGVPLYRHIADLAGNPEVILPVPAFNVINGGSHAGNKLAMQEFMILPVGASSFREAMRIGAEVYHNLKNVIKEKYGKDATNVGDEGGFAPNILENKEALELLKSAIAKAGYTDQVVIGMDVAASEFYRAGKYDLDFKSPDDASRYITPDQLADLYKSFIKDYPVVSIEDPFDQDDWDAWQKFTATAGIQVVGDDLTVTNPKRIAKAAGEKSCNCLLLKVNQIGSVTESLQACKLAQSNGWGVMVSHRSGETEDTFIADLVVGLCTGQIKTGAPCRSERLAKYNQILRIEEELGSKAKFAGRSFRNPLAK", "UniProt P52555, residues 33-260": "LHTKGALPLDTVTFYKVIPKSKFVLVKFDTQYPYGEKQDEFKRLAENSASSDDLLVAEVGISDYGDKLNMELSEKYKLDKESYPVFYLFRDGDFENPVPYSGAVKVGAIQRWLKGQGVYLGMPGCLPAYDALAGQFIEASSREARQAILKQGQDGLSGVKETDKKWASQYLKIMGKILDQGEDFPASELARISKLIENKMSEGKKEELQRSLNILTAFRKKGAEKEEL", "UniProt P61107": "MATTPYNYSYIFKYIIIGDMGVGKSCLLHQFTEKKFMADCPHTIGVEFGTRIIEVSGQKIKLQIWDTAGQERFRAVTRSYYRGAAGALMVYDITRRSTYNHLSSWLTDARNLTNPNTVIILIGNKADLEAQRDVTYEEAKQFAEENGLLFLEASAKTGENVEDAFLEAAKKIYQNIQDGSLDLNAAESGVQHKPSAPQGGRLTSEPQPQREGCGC", "UniProt P10536": "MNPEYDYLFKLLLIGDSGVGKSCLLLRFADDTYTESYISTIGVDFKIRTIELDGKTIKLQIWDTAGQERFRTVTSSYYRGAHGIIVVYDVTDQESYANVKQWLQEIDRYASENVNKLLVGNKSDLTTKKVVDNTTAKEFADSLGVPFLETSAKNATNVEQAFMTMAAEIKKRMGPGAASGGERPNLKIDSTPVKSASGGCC", "UniProt Q3T1J1": "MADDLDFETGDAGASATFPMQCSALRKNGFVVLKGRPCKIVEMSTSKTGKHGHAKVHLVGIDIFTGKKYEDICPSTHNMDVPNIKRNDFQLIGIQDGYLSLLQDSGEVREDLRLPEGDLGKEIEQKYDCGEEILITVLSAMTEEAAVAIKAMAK", "UniProt P63039, residues 27-573": "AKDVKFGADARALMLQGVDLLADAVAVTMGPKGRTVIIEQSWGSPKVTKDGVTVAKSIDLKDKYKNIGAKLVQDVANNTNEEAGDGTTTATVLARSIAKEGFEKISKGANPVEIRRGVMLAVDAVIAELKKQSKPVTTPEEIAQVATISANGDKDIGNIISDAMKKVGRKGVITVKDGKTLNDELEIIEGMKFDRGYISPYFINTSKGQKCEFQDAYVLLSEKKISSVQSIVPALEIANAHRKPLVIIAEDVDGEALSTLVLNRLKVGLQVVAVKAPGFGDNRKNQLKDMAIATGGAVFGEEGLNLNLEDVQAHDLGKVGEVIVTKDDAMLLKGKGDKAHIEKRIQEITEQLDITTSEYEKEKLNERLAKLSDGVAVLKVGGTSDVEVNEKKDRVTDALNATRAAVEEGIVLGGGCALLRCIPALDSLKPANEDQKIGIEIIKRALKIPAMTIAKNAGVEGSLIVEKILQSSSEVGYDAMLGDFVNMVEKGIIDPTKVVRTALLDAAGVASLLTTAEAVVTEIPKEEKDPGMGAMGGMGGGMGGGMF", "UniProt P06733": "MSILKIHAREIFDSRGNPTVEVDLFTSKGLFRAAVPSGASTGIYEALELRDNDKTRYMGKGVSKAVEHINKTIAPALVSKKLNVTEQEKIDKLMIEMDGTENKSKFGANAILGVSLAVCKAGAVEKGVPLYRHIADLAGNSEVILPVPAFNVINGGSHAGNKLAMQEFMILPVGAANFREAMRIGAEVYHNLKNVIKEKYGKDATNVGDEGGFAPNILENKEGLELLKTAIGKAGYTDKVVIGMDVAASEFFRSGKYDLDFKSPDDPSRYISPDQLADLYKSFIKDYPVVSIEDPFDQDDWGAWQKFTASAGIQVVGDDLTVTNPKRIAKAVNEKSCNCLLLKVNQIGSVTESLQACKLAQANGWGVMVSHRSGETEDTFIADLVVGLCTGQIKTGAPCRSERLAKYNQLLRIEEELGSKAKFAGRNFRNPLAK", "UniProt P18669": "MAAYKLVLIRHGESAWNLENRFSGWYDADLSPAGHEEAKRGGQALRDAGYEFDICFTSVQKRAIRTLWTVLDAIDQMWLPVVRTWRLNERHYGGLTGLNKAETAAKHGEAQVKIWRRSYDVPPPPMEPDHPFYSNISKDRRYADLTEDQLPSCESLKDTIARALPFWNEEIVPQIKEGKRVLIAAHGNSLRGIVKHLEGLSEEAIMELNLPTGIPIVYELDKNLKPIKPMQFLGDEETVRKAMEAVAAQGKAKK", "UniProt Q92598": "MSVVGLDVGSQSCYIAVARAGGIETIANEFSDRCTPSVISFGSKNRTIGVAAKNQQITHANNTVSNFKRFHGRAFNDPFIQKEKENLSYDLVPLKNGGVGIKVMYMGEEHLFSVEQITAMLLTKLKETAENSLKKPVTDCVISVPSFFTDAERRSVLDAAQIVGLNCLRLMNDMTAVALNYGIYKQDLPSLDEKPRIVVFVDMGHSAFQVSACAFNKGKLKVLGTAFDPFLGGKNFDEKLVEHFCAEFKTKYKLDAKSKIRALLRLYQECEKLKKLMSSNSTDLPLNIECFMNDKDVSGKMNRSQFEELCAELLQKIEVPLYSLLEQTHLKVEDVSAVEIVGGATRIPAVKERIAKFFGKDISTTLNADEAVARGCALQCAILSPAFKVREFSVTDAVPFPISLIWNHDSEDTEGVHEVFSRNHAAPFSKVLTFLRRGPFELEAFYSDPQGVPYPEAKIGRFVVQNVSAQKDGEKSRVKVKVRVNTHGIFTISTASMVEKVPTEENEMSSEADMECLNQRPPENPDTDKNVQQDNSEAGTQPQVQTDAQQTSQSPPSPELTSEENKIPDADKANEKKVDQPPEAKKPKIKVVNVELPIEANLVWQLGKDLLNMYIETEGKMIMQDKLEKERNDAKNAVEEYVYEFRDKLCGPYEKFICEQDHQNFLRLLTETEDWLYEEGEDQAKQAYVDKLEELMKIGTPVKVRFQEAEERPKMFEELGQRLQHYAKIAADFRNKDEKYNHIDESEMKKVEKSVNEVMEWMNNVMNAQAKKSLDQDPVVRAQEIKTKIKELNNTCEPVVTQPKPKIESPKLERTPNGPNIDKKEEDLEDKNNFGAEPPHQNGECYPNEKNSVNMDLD", "UniProt P63241": "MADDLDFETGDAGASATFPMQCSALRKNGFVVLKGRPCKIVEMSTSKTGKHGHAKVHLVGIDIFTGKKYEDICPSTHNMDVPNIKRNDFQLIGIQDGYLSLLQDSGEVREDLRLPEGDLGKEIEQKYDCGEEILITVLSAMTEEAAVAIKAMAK", "UniProt P27824, residues 21-592": "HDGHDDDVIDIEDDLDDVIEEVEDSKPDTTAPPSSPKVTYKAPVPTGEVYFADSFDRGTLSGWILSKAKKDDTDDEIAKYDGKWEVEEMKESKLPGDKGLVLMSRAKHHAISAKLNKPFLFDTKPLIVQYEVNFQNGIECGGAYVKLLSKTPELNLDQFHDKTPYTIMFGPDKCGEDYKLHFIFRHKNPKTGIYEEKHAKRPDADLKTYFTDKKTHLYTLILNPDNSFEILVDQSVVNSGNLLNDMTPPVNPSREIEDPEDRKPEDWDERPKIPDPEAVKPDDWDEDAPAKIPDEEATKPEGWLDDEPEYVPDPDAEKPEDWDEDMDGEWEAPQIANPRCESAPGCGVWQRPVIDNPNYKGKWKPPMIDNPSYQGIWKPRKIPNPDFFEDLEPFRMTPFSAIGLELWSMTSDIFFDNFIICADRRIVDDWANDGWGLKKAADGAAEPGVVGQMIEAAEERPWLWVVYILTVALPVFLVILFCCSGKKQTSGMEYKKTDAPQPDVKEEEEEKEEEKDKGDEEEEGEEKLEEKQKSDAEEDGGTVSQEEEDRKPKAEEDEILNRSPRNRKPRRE", "UniProt P14625, residues 22-803": "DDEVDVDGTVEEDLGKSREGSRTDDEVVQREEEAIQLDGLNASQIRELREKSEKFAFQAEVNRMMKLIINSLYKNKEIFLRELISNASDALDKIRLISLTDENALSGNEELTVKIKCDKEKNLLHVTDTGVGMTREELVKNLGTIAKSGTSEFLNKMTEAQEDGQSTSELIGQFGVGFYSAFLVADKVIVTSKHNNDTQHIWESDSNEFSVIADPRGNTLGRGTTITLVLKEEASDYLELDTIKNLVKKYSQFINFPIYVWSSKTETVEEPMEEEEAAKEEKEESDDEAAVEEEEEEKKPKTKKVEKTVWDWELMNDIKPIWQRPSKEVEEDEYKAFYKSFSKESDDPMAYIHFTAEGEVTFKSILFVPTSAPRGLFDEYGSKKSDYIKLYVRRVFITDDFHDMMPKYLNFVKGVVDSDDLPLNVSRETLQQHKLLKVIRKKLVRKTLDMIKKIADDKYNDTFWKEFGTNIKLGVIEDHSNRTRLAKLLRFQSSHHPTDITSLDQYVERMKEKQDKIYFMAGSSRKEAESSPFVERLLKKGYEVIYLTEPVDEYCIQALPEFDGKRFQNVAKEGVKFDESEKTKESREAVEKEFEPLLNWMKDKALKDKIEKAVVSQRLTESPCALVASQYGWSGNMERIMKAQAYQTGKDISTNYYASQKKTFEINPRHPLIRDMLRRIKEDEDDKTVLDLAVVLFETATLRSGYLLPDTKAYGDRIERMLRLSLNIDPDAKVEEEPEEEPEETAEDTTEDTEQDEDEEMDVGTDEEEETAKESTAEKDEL", "UniProt P11021, residues 19-654": "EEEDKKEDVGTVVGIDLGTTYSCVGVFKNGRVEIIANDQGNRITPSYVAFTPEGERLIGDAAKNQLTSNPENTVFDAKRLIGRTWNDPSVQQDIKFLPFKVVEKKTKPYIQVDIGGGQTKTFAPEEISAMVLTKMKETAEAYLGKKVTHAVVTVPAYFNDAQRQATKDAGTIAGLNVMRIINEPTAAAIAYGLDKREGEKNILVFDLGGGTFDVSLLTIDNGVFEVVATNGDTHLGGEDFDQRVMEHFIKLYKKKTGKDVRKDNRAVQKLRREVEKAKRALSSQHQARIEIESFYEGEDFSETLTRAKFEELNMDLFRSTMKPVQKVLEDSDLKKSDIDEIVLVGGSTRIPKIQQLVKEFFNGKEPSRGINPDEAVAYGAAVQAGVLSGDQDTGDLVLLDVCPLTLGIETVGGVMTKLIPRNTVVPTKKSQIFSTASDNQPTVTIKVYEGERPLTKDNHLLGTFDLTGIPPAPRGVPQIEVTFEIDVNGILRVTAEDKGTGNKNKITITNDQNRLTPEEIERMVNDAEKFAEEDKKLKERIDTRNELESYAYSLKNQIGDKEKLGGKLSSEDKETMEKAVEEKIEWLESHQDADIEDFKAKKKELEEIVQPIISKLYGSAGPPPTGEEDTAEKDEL"}, "source": "paper PMC7949057", "about": "“The cytoprotective protein MANF promotes neuronal survival independently from its role as a GRP78 cofactor” (The Journal of Biological Chemistry, 2021)", "note": "Results are given in words; binding and its absence hold for the method and conditions named. In cells and extracts the contact can be indirect. These calls come from enrichment with a bait or labelling near it, and not all partners need be listed. For some of these results: A no says only that the protein was not detected with the bait. Sequences can lack the tags named with a protein.", "data": [{"target": "T1, SH-tagged MANF (pre-SH-MANF), expressed in INS1 cells (human) (UniProt P55145)", "T1 sequence": "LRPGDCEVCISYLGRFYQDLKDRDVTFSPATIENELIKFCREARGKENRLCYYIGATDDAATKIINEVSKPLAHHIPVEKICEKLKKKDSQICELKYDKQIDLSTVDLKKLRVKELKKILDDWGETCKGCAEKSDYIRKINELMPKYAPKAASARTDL", "test": "affinity purification with mass spectrometry; SH-tagged MANF as bait from doxycycline-induced INS1 pre-SH-MANF cells; HENN lysis buffer; Strep-Tactin beads, biotin elution; GFP-SH cells as negative control; FDR <= 0.001, s0 = 2", "values": [{"substance": "ubiquitin carboxyl-terminal hydrolase isozyme L1, endogenous in INS1 (from UniProt Q00981 1-223)", "binding": "binds"}, {"substance": "PDIA1, endogenous in INS1 (from UniProt P04785 20-509)", "binding": "binds"}, {"substance": "GRP94, endogenous in INS1 (from UniProt Q66HD0 22-804)", "binding": "no binding"}, {"substance": "IF4A1, endogenous in INS1 (from UniProt Q6P3V8 1-407)", "binding": "binds"}, {"substance": "KCRB, endogenous in INS1 (from UniProt P07335 1-381)", "binding": "binds"}, {"substance": "ENOA, endogenous in INS1 (from UniProt P04764 1-434)", "binding": "binds"}, {"substance": "endoplasmic reticulum resident protein 29, endogenous in INS1 (from UniProt P52555 33-260)", "binding": "binds"}, {"substance": "ribophorin 2, endogenous in INS1 (from UniProt P25235 23-631)", "binding": "binds"}, {"substance": "membrane-associated progesterone receptor component 1, endogenous in INS1 (from UniProt P70580 1-195)", "binding": "binds"}, {"substance": "ras-related protein Rab-14, endogenous in INS1 (from UniProt P61107 1-215)", "binding": "binds"}, {"substance": "ras-related protein Rab-1B, endogenous in INS1 (from UniProt P10536 1-201)", "binding": "binds"}, {"substance": "IF5A1, endogenous in INS1 (from UniProt Q3T1J1 1-154)", "binding": "binds"}, {"substance": "60 kDa heat shock protein (CH60), endogenous in INS1 (from UniProt P63039 27-573)", "binding": "binds"}]}, {"target": "T2, SH-tagged MANF (pre-SH-MANF), expressed in HEK293 cells (human) (UniProt P55145)", "T2 sequence": "T1 sequence", "test": "affinity purification with mass spectrometry; SH-tagged MANF as bait from doxycycline-induced HEK293 pre-SH-MANF cells; HENN lysis buffer (50 mM Hepes-NaOH pH 8.0, 5 mM EDTA, 150 mM NaCl, 50 mM NaF, 0.5% NP40); Strep-Tactin beads, biotin elution; GFP-SH cells as negative control; FDR <= 0.001, s0 = 2", "values": [{"substance": "ENOA, endogenous in HEK293 (from UniProt P06733 1-434)", "binding": "binds"}, {"substance": "PGAM1, endogenous in HEK293 (from UniProt P18669 1-254)", "binding": "binds"}, {"substance": "IF4A1, endogenous in HEK293 (from UniProt P60842 1-406)", "binding": "binds"}, {"substance": "HS105, endogenous in HEK293 (from UniProt Q92598 1-858)", "binding": "binds"}, {"substance": "eukaryotic translation initiation factor 5A-1 (IF5A1), endogenous in HEK293 (from UniProt P63241 1-154)", "binding": "binds"}, {"substance": "KCRB, endogenous in HEK293 (from UniProt P12277 1-381)", "binding": "binds"}, {"substance": "60 kDa heat shock protein (CH60), endogenous in HEK293 (from UniProt P10809 27-573)", "binding": "binds"}, {"substance": "protein disulfide isomerase family A member 3, endogenous in HEK293 (from UniProt P30101 25-505)", "binding": "binds"}, {"substance": "calnexin, endogenous in HEK293 (from UniProt P27824 21-592)", "binding": "binds"}, {"substance": "GRP94, endogenous in HEK293 (from UniProt P14625 22-803)", "binding": "binds"}, {"substance": "glucose-regulated protein 78 (GRP78), endogenous in HEK293 (from UniProt P11021 19-654)", "binding": "binds"}, {"substance": "protein disulfide isomerase family A member 1 (PDIA1), endogenous in HEK293 (from UniProt P07237 18-508)", "binding": "binds"}]}]}
